No constants are given. Whether binding was seen depends on the method and setting. In cells and extracts the contact can be indirect. Some entries that bind do so weakly or less than the wild type.
What was measured:
[1] = biological target: GST Wash (wildtype) (Drosophila) (UniProt Q7JW27); assay: pull-down
[2] = biological target: T1, Lamin B (Drosophila (endogenous in Kc167 cells)) (UniProt P08928); assay: co-IP
T1 sequence: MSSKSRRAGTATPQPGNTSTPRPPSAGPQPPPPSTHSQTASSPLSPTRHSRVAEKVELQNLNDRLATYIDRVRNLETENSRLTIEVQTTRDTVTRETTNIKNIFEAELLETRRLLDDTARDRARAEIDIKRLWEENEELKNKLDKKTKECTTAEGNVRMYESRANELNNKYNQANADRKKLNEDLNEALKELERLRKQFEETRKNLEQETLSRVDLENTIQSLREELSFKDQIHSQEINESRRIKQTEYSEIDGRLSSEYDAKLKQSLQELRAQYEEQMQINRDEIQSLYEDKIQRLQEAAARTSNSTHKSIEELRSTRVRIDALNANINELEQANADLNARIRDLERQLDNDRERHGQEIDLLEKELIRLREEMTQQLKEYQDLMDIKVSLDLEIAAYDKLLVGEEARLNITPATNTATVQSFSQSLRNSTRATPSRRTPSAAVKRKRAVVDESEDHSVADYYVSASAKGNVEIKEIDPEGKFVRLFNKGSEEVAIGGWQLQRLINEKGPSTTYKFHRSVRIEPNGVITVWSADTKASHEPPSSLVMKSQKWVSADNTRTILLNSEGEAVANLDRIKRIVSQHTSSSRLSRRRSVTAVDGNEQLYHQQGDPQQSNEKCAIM

Protein sequences, listed by entry. Tags and fused reporters are not part of them.
UniProt Q7JW27: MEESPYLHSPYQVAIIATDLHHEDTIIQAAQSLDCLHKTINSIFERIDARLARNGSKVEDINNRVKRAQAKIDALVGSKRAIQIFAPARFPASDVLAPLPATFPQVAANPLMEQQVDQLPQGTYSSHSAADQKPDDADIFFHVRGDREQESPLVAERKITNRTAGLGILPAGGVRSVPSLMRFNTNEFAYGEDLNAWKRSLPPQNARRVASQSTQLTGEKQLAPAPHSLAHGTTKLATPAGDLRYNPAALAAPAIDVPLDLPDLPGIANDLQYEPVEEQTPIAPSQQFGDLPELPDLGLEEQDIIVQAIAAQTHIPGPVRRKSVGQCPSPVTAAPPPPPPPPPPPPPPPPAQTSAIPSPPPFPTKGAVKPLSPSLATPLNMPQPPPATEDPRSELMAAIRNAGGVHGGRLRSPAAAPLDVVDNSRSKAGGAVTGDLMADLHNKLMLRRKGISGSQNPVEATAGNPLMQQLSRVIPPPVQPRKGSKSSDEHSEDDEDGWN

[3] = biological target: T2, Lamin C (Drosophila (endogenous in Kc167 cells)) (UniProt Q03427); assay: co-IP
T2 sequence: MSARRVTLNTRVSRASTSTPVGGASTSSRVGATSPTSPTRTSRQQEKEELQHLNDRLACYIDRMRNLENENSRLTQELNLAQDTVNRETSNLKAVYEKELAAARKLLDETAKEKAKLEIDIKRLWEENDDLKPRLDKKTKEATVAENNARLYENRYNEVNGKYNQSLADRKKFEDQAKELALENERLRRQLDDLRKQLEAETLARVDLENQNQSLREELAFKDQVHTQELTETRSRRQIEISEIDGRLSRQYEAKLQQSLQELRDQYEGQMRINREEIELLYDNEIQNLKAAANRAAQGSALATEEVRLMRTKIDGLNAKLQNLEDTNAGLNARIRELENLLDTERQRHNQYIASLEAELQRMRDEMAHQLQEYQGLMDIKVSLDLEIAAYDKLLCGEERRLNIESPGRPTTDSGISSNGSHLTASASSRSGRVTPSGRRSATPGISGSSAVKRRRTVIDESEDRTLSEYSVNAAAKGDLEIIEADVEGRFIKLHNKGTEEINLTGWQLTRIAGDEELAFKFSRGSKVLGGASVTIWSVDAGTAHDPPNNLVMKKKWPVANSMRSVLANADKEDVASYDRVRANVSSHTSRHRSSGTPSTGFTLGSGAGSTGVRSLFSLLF

[4] = biological target: Wash (Drosophila (endogenous in Kc167 cells)) (UniProt Q7JW27); assay: co-IP
[5] = biological target: T3, CCDC53 (Drosophila (endogenous in Kc167 cells)) (UniProt Q9VLT8); assay: co-IP
T3 sequence: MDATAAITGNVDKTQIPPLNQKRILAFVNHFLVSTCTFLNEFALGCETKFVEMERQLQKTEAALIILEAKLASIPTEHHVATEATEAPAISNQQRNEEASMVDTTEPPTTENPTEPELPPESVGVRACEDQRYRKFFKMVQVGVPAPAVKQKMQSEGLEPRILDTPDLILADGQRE

## 35S-labeled in vitro translated Wash (from UniProt Q7JW27 1-499)
[1]
  binding: binds

## 35S-labeled in vitro translated CCDC53 (from UniProt Q9VLT8 1-176)
[1]
  binding: binds

B1: CCDC53 (protein, UniProt Q9VLT8 1-176)
chain: MDATAAITGNVDKTQIPPLNQKRILAFVNHFLVSTCTFLNEFALGCETKFVEMERQLQKTEAALIILEAKLASIPTEHHVATEATEAPAISNQQRNEEASMVDTTEPPTTENPTEPELPPESVGVRACEDQRYRKFFKMVQVGVPAPAVKQKMQSEGLEPRILDTPDLILADGQRE
[2]
  binding: no binding
[3]
  binding: no binding
[4]
  binding: binds

B2: Strumpellin (protein, UniProt Q9VUY8 1-1191)
chain: MSFLDDNNACGQNLLNIVSVGNSIIAEILRLKDYVPSIYRLDNKADKAKYGELILDFSYFKIAEDHERRIEQSPELTELDDEARAQLPLITRFYLAFQSIHHYASDLQQYIEELNTGYYIQQTLETVLQEEEGRQLLCESLYLFGVILLMVDFHIPGDVRERLLIAYYRYSGGDATPSGDESNIHDVCLLLRSTGYVHPSIAAKVLGLGGKQAGARAASLVVPRYPEAYFSRFRFDENFVDLVVARLRCDDIYNQLNLYPHPAHRSTALSTQAAMLYVCLYFCPQVLHSQGSQMREIVDKFFCDNWTISVYMGMTVNLVDAWLDFKAARSAIENVISPPAIKALCQQQKEQLGKITQKTQEIVREGVLNDNFVLEHANKIIHLMRQSNVLLRWFCLHTSREVFIFAHTATLTGQVQKCVLHELQFNRNTLYNLLLNCSQMELSVREFLAEIQQTKEERWTKSREEAMQRLNELSEAFAGSRPLSKIEQNPQLQQWFGEVAGRLQKLELSRPQKSGRLIIQVMQALDDVQEYHNLHSNMLVKQQLQETRDMLNQMAQLINLKEDIEIHIQMITDFSYAWHLLQFDFTPPMQEHIKRQPQAVIGIRAVFLKLASTLEVPLMRINQARSEDLVSVSNYYSTELANFLRRVLQIVPETMFSILAKIIYLLTNVIKEFPTKVEKERLKDYAQFEERAKVAQLTNSIAVFTKGILMMKTTLVGVIELDPKQLLEDGIRKELVNHLANAYNLGLIFTPEKGKTPVQLLQQKLQALAKTIEGYRRSFEYIEDYLRVQGLRILLEESQRIINYNVEKECNAFLRNKVQEFQSEHQSQIIPIPNFPPLLGDPSNNFIGRLAHEILRCTDPKQTIFLDLKSTWYEKKAPHQEVLAGSGFFEILREALAPAGMVGLERLYAHMLADELKRNLERLQRNLTSDRMWVDTLAALTRELEARDFPTPEVSKQPLKYYQAYTQRWLKVWPTLLDWVLCIGQKQLLRREIAGELSFSSKCDAKLLENTADTLNKALLLELSLSKDLCDEKGVVMLTELQETLLYTGNFEPLEQVFLITKNTHNMALFMFLFTIAHLGRMQHSTITDCLLPKSAKDNIDNVPFIVGLVTILQQFHKNVKMLYISYMSQYVVTVSEAQLLDKEILGPEVVTALHFLLAFIRIARLPLGVLEQRIPNIILSEYEYLSTLLK
[5]
  binding: binds
[2]
  binding: no binding
[3]
  binding: no binding
[4]
  binding: binds

B3: 35S-labeled in vitro translated Lamin C (protein, UniProt Q03427 1-621)
chain: MSARRVTLNTRVSRASTSTPVGGASTSSRVGATSPTSPTRTSRQQEKEELQHLNDRLACYIDRMRNLENENSRLTQELNLAQDTVNRETSNLKAVYEKELAAARKLLDETAKEKAKLEIDIKRLWEENDDLKPRLDKKTKEATVAENNARLYENRYNEVNGKYNQSLADRKKFEDQAKELALENERLRRQLDDLRKQLEAETLARVDLENQNQSLREELAFKDQVHTQELTETRSRRQIEISEIDGRLSRQYEAKLQQSLQELRDQYEGQMRINREEIELLYDNEIQNLKAAANRAAQGSALATEEVRLMRTKIDGLNAKLQNLEDTNAGLNARIRELENLLDTERQRHNQYIASLEAELQRMRDEMAHQLQEYQGLMDIKVSLDLEIAAYDKLLCGEERRLNIESPGRPTTDSGISSNGSHLTASASSRSGRVTPSGRRSATPGISGSSAVKRRRTVIDESEDRTLSEYSVNAAAKGDLEIIEADVEGRFIKLHNKGTEEINLTGWQLTRIAGDEELAFKFSRGSKVLGGASVTIWSVDAGTAHDPPNNLVMKKKWPVANSMRSVLANADKEDVASYDRVRANVSSHTSRHRSSGTPSTGFTLGSGAGSTGVRSLFSLLF
modifications: 35S-labeled
[1]
  binding: no binding

Reference: publication doi:10.1101/2019.12.18.881763
